Results are given in words; binding and its absence hold for the method and conditions named. In cells and extracts the contact can be indirect. For some assays here: Binding can be weak; no strength is given. Where a sequence is shown, tags or fusion partners need not be part of it.

Assay [1] addresses murine Notch1 LNR form (lacks all the EGF repeats), HA tagged (murine). Briefly: co-IP; 293 T cells transiently co-transfected with vectors for a Notch1 construct and TM2D3; TM2D3 found in the immunoprecipitate of the Notch1 construct; antibodies only 'as indicated' in the figure (Fig. 4b, c, f).
Assay [2] deals with murine Notch1 ΔE form, HA tagged (murine). The assay is described as above.

B1: FLAG-tagged TM2D3 variant 1 (transmembrane 2 domain containing 3) (protein, UniProt Q9BRN9 26-247)
chain: ILSGGEQSQALAQSIKDPGPTRTFTVVPRAAESTEIPPYVMKCPSNGLCSRLPADCIDCTTNFSCTYGKPVTFDCAVKPSVTCVDQDFKSQKNFIINMTCRFCWQLPETDYECTNSTSCMTVSCPRQRYPANCTVRDHVHCLGNRTFPKMLYCNWTGGYKWSTALALSITLGGFGADRFYLGQWREGLGKLFSFGGLGIWTLIDVLLIGVGYVGPADGSLYI
As to B1, the binding entry in assay [1] is “binds”; in assay [2], “no binding”.

(Values after article PMC10684865.)
